Results on 42 sequences are retold here after publication PMC7819943, “Rice protein-binding microarrays: a tool to detect cis-acting elements near promoter regions in rice”.

Sequences of proteins named here, by UniProt entry; tags and fusion partners are left off.
UniProt Q0JBA9, entry or part of it: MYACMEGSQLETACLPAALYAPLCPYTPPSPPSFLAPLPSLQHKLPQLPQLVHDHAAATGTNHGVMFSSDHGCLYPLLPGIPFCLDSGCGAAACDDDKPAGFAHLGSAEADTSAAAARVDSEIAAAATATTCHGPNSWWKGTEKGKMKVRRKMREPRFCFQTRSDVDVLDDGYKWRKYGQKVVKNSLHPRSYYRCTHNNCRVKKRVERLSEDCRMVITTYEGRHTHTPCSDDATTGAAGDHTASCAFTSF

Some of the results follow.

The target in the experiment is OsWRKY34 (Oryza sativa, UniProt Q0JBA9 1-250). In words: protein-binding microarray (RPBM); PBS, 2% BSA, 51.3 ng/ul salmon testes DNA, 50 uM zinc acetate, 200 nM TF, 25 C, 1 h; high values mean tight binding. As to conditions: protein: recombinant; tags: N-terminal polyhistidine and DsRed monomer fusion (pET32a); label: CyDye5-dUTP incorporated in the synthesized complementary strand; 3' TTTTT single-stranded linker to array surface; dsDNA, one strand shown. Summed up: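 Ni–NTA purification followed expression in E. coli BL21-CodonPlus of transcription factors fused N-terminally to a polyhistidine tag and DsRed. At 200 nM in PBS with 2% BSA, salmon testes DNA and 50 µM zinc acetate, the protein was incubated for 1 h at 25 °C with a custom Agilent array that had been primer-extended with Cy5-dUTP and blocked with 2% BSA. After washing, the array was read on an Axon 4000B scanner. The binding signal is per-feature fluorescence intensity in arbitrary units.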
With “CGGGCAATGCGGATCACGTCGATCACGTTCTCTTGTATTTCGGAGTCACCTAGTGCAG”, the binding signal was 8120 fluorescence intensity (a.u.). The value for “ACTTTTACTCTATTTTTATTTTGCTGACTAGGATATCACGCGGAGTCACCTAGTGCAG” was 9320 fluorescence intensity (a.u.). The value for “CTATATGGACTCTATACTCTATTTCTAATATTCCTTATTTCGGAGTCACCTAGTGCAG” was 8780 fluorescence intensity (a.u.). Consider “ATAATCATCCTGCATTTCTTCAGTTGTCGCCATACTTCTGCGGAGTCACCTAGTGCAG”, for which the binding signal was 8980 fluorescence intensity (a.u.). As for “ATTTTTCATGCCTACATTTCTTGTTGTTTACCGTCACACTCGGAGTCACCTAGTGCAG”, the binding signal is 11600 fluorescence intensity (a.u.). As for “TCACCAACGCCAACGCCAAGGCCCATTTCCCACCAACCCACGGAGTCACCTAGTGCAG”, the figure is 8360 fluorescence intensity (a.u.); as for “CAGGGCGCCGTTGTTTGTCCCGCTGCTTCCACCGCATCCTCGGAGTCACCTAGTGCAG”, 8200 fluorescence intensity (a.u.). For the sequence “ATGTGCCTGACCCCATTCATCTTCTCACATGAATATCACCCGGAGTCACCTAGTGCAG”, the binding signal is 8780 fluorescence intensity (a.u.). The value for “GGCCCTTTTCAGTCCGTGCCGTGTTTTTCTTCTTCTTAATCGGAGTCACCTAGTGCAG” was 13200 fluorescence intensity (a.u.); that for “TATTTCCATTCAACCGTTTAAATTCATGTTTGTTTTCCATCGGAGTCACCTAGTGCAG” was 9960 fluorescence intensity (a.u.); that for “TTTCGACTCTGCTTCTTTTATTATTACTTTTTATTTTATTCGGAGTCACCTAGTGCAG” was 12400 fluorescence intensity (a.u.). The value for “AAGGACGATTTATCTTTTGCTTCACCCGTCTCTACTCTCTCGGAGTCACCTAGTGCAG” was 9160 fluorescence intensity (a.u.). As for “ACATTGTTCTCTCTTTTACGGCCTTTTTTTTTTCTGAATTCGGAGTCACCTAGTGCAG”, the binding signal was 17900 fluorescence intensity (a.u.).

As for “ACTCTACTTCTAATATTCCTTATTTTTAATTCTGAATTTCCGGAGTCACCTAGTGCAG”, the binding signal is 8950 fluorescence intensity (a.u.). As for “GTAAGGGTTAATTTGGGAGGTAGAGTAAAAGATTGTTCGACGGAGTCACCTAGTGCAG”, the figure is 9330 fluorescence intensity (a.u.); as for “GTAGGCTCGTCGTCTAGCTCTGGTCAACTCAAGTCGTCGCCGGAGTCACCTAGTGCAG”, 9500 fluorescence intensity (a.u.); as for “AGAGTGGTATATGTATGTTTTCAATTTTTTTTGAGATTTTCGGAGTCACCTAGTGCAG”, 10700 fluorescence intensity (a.u.). The value for “TCCTCGCCGACGGCGTGCCGGCTCACGTTGCACCTCACCGCGGAGTCACCTAGTGCAG” was 8210 fluorescence intensity (a.u.); that for “GGACTATGTTTTGATGAATTGTGGTCGGATATGTGTTGACCGGAGTCACCTAGTGCAG” was 10300 fluorescence intensity (a.u.). Regarding “CTTCTTTTGTAGACAAACCAGTCACCTTGATTATTTTTTTCGGAGTCACCTAGTGCAG”, the binding signal is 9220 fluorescence intensity (a.u.). The value for “CAACAACAACAACCCCGTCTCCACCACCACCACCACCACTCGGAGTCACCTAGTGCAG” was 8080 fluorescence intensity (a.u.); that for “CACCACCTTTGTTTGCTGCTCTCCATTTTTTTTCTTCGTTCGGAGTCACCTAGTGCAG” was 10200 fluorescence intensity (a.u.); that for “TTTTGGTCTTGTGATAGGTTATTTGCTTACGGTTATCAACCGGAGTCACCTAGTGCAG” was 8870 fluorescence intensity (a.u.). Take “TCTTCTCTTCAACCACTGGTGTGTGGTGTGTGTGGTTCTCCGGAGTCACCTAGTGCAG”: the binding signal was 10100 fluorescence intensity (a.u.). As for “TCTTTCTTTTCCGATCACACGGTCATCACTCGGTCAGGTTCGGAGTCACCTAGTGCAG”, the figure is 9280 fluorescence intensity (a.u.). As for “CTGATTAATTTACAGAAATTTCGCATCGTTTTTGATTTGTCGGAGTCACCTAGTGCAG”, the figure is 8830 fluorescence intensity (a.u.).

“TCGTCTCGCAATTTATATGCAAATTGTGCAATTAGTTTTTCGGAGTCACCTAGTGCAG”: the binding signal was 8470 fluorescence intensity (a.u.). The value for “TAACGGGGAACATCAATATATATACCTTTTCAGCTCTGTTCGGAGTCACCTAGTGCAG” was 9520 fluorescence intensity (a.u.). The value for “CATCCCTTCCAATCCAGGCTTCCACTTCCATCGCATCGATCGGAGTCACCTAGTGCAG” was 8540 fluorescence intensity (a.u.); that for “TGGGTATCTATAGCTCTCTCATGCATTGCCTGTTTTTCTCCGGAGTCACCTAGTGCAG” was 9140 fluorescence intensity (a.u.); that for “GCGATTTGATTTGATTAAACTTAATTAATTATTTTTTGTTCGGAGTCACCTAGTGCAG” was 8080 fluorescence intensity (a.u.). In the case of “ATCATCATTCATTTCATCAACTCCTCTTTGTGTGTAGACTCGGAGTCACCTAGTGCAG”, the binding signal is 9130 fluorescence intensity (a.u.). As for “ACCGTTACGTTGCCCACTGCCACCGCCCGCGGCCCCAATCCGGAGTCACCTAGTGCAG”, the figure is 11400 fluorescence intensity (a.u.); as for “CTCATGTTTGACCATTCGTCTTATTTAAAAACTTTTGTGACGGAGTCACCTAGTGCAG”, 8180 fluorescence intensity (a.u.); as for “GGTTTTAATATTGAGGGTTAGGGTCGTTCTATCCGGGTTTCGGAGTCACCTAGTGCAG”, 9580 fluorescence intensity (a.u.). The value for “GGCACACCACCCAGTCGGCCAACCAATCCTCCGACCGGCTCGGAGTCACCTAGTGCAG” was 9810 fluorescence intensity (a.u.); that for “CTGTGTGGGTTGGTAAAGACTGAGGCGTATTTATAACTGGCGGAGTCACCTAGTGCAG” was 9400 fluorescence intensity (a.u.). As for “GAGGTTAGACAAGTTTGACCATGTTAGGTGAGTGTTTGGTCGGAGTCACCTAGTGCAG”, the binding signal was 8400 fluorescence intensity (a.u.). As for “TCGCATCCACTCCACATACTACCACTCAAAAACTCTCTCTCGGAGTCACCTAGTGCAG”, the figure is 11000 fluorescence intensity (a.u.); as for “CTTTGATCGTCCGTCTTATTTATTTTTTTTTGTAATTAGTCGGAGTCACCTAGTGCAG”, 8430 fluorescence intensity (a.u.).

On to “CGGTCTGACCGCCCACATACCTGCGGTCAGACCGGCCCTACGGAGTCACCTAGTGCAG”, for which the binding signal is 9440 fluorescence intensity (a.u.).

Turning to “GCAGCGCCGCCGCCTCATCCGCGTCGACCTCCGCCTCCGCCGGAGTCACCTAGTGCAG”, the binding signal is 8750 fluorescence intensity (a.u.).
